This note sets out measurements from paper PMC5543143, “Structural Basis for the Mechanism of ATP-Dependent Acetone Carboxylation” (Scientific Reports, 2017).

Results are given in words; binding and its absence hold for the method and conditions named. Some binding calls cover weakened binding; strength is not graded here. Where a sequence is shown, tags or fusion partners need not be part of it.

Assay [1] has as its target T1, acetone carboxylase α subunit (AcxB) from Xanthobacter autotrophicus Py2, recombinant (Xanthobacter autotrophicus Py2) (UniProt Q8RM03).
T1 sequence: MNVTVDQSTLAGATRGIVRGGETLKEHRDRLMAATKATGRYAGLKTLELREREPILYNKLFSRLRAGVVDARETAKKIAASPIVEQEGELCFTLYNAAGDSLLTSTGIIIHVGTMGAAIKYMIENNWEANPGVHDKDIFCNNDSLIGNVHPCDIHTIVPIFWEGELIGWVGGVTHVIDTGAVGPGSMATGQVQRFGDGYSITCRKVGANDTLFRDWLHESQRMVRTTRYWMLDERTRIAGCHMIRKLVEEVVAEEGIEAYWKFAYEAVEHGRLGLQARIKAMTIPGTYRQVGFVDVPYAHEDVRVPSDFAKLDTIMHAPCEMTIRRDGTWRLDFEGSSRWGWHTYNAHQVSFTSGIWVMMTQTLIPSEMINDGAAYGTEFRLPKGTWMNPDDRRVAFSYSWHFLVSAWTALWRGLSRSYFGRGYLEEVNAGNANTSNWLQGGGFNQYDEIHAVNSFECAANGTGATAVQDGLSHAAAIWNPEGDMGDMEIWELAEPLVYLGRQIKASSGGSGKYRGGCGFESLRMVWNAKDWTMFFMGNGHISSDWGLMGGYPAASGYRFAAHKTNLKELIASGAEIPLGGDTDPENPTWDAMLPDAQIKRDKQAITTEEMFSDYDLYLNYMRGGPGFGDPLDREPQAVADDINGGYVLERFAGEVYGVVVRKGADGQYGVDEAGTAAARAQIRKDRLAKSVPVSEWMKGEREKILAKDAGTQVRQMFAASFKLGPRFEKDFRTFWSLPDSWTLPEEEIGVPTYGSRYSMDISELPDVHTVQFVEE
In words: crystal structure; recombinant AC (αβγ)2, ligand-free and AMP-bound; hanging drop, 25 °C, 14-18% PEG 3350, 0.2 M MgSO4, pH 6.3; nucleotide additives 5 mM; SAD with selenium; both purified.

For assay [2], the target named is T2, acetone carboxylase β subunit (AcxA) from Xanthobacter autotrophicus Py2, recombinant, His-tagged (Xanthobacter autotrophicus Py2) (UniProt Q8RM04).
T2 sequence: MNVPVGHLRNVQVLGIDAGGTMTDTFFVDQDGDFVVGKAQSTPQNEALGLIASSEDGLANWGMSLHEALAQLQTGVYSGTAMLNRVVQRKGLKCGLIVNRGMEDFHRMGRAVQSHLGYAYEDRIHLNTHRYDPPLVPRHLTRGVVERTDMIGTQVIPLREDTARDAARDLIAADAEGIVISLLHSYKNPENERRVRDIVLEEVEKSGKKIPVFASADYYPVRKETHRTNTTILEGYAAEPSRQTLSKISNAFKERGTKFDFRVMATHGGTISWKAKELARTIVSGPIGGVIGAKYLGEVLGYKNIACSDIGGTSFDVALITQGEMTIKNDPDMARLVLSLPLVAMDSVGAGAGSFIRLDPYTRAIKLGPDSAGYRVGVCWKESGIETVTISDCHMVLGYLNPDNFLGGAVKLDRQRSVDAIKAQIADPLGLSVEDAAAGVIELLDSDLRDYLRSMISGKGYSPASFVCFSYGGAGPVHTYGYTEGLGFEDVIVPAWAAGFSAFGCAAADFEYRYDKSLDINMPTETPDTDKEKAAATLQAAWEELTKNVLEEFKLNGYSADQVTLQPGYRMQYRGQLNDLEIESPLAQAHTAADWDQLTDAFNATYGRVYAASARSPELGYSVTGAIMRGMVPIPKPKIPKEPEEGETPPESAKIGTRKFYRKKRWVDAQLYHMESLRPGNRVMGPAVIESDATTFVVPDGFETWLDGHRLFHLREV
The description is as above.

B1: acetone carboxylase γ subunit (AcxC) from Xanthobacter autotrophicus Py2, recombinant (protein, UniProt Q8RM02 1-168)
chain: MAYTRSKIVDLVDGKIDPDTLHQMLSTPKDPERFVTYVEILQERMPWDDKIILPLGPKLFIVQQKVSKKWTVRCECGHDFCDWKDNWKLSARVHVRDTPQKMEEIYPRLMAPTPSWQVIREYFCPECGTLHDVEAPTPWYPVIHDFSPDIEGFYQEWLGLPVPERADA
For the molecule B1, the binding result in assay [1] and in assay [2] was “binds” each time.

B2: acetone carboxylase β subunit (AcxA) from Xanthobacter autotrophicus Py2, recombinant, His-tagged (protein, UniProt Q8RM04 1-717)
chain: MNVPVGHLRNVQVLGIDAGGTMTDTFFVDQDGDFVVGKAQSTPQNEALGLIASSEDGLANWGMSLHEALAQLQTGVYSGTAMLNRVVQRKGLKCGLIVNRGMEDFHRMGRAVQSHLGYAYEDRIHLNTHRYDPPLVPRHLTRGVVERTDMIGTQVIPLREDTARDAARDLIAADAEGIVISLLHSYKNPENERRVRDIVLEEVEKSGKKIPVFASADYYPVRKETHRTNTTILEGYAAEPSRQTLSKISNAFKERGTKFDFRVMATHGGTISWKAKELARTIVSGPIGGVIGAKYLGEVLGYKNIACSDIGGTSFDVALITQGEMTIKNDPDMARLVLSLPLVAMDSVGAGAGSFIRLDPYTRAIKLGPDSAGYRVGVCWKESGIETVTISDCHMVLGYLNPDNFLGGAVKLDRQRSVDAIKAQIADPLGLSVEDAAAGVIELLDSDLRDYLRSMISGKGYSPASFVCFSYGGAGPVHTYGYTEGLGFEDVIVPAWAAGFSAFGCAAADFEYRYDKSLDINMPTETPDTDKEKAAATLQAAWEELTKNVLEEFKLNGYSADQVTLQPGYRMQYRGQLNDLEIESPLAQAHTAADWDQLTDAFNATYGRVYAASARSPELGYSVTGAIMRGMVPIPKPKIPKEPEEGETPPESAKIGTRKFYRKKRWVDAQLYHMESLRPGNRVMGPAVIESDATTFVVPDGFETWLDGHRLFHLREV
As to B2, the binding result in assay [1] is on record as “binds”.
